Measured values from publication PMC7757026.
Results are given in words; binding and its absence hold for the method and conditions named. In cells and extracts the contact can be indirect. Some results given as binding are weak or reduced against the parent protein; the word gives no strength. Sequences can lack the tags named with a protein.

Sequences of proteins named here, by UniProt entry; tags and fusion partners are left off.
UniProt P10275: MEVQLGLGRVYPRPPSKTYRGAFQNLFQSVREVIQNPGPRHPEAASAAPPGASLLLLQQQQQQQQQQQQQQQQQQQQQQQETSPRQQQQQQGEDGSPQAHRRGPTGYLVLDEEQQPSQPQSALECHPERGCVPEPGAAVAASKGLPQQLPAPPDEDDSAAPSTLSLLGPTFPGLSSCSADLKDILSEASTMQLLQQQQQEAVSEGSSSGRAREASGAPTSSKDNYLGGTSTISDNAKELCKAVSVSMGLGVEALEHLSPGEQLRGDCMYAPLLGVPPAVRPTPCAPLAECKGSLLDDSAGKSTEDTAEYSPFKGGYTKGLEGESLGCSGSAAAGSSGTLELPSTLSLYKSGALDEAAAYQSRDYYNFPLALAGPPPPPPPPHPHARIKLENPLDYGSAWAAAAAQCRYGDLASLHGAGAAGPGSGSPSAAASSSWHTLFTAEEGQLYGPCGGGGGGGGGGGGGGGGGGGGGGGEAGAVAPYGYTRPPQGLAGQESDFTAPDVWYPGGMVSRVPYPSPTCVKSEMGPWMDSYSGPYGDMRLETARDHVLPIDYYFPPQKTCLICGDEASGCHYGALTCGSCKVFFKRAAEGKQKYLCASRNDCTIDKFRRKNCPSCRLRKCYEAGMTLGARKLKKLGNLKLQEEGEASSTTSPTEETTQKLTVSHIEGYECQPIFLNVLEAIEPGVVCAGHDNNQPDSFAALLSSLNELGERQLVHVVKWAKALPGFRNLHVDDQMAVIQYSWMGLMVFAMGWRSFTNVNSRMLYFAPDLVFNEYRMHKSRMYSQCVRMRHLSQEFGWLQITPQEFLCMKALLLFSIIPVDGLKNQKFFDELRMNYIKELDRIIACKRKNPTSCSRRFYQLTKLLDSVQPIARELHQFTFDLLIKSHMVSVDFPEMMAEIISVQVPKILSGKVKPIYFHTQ
UniProt Q03164: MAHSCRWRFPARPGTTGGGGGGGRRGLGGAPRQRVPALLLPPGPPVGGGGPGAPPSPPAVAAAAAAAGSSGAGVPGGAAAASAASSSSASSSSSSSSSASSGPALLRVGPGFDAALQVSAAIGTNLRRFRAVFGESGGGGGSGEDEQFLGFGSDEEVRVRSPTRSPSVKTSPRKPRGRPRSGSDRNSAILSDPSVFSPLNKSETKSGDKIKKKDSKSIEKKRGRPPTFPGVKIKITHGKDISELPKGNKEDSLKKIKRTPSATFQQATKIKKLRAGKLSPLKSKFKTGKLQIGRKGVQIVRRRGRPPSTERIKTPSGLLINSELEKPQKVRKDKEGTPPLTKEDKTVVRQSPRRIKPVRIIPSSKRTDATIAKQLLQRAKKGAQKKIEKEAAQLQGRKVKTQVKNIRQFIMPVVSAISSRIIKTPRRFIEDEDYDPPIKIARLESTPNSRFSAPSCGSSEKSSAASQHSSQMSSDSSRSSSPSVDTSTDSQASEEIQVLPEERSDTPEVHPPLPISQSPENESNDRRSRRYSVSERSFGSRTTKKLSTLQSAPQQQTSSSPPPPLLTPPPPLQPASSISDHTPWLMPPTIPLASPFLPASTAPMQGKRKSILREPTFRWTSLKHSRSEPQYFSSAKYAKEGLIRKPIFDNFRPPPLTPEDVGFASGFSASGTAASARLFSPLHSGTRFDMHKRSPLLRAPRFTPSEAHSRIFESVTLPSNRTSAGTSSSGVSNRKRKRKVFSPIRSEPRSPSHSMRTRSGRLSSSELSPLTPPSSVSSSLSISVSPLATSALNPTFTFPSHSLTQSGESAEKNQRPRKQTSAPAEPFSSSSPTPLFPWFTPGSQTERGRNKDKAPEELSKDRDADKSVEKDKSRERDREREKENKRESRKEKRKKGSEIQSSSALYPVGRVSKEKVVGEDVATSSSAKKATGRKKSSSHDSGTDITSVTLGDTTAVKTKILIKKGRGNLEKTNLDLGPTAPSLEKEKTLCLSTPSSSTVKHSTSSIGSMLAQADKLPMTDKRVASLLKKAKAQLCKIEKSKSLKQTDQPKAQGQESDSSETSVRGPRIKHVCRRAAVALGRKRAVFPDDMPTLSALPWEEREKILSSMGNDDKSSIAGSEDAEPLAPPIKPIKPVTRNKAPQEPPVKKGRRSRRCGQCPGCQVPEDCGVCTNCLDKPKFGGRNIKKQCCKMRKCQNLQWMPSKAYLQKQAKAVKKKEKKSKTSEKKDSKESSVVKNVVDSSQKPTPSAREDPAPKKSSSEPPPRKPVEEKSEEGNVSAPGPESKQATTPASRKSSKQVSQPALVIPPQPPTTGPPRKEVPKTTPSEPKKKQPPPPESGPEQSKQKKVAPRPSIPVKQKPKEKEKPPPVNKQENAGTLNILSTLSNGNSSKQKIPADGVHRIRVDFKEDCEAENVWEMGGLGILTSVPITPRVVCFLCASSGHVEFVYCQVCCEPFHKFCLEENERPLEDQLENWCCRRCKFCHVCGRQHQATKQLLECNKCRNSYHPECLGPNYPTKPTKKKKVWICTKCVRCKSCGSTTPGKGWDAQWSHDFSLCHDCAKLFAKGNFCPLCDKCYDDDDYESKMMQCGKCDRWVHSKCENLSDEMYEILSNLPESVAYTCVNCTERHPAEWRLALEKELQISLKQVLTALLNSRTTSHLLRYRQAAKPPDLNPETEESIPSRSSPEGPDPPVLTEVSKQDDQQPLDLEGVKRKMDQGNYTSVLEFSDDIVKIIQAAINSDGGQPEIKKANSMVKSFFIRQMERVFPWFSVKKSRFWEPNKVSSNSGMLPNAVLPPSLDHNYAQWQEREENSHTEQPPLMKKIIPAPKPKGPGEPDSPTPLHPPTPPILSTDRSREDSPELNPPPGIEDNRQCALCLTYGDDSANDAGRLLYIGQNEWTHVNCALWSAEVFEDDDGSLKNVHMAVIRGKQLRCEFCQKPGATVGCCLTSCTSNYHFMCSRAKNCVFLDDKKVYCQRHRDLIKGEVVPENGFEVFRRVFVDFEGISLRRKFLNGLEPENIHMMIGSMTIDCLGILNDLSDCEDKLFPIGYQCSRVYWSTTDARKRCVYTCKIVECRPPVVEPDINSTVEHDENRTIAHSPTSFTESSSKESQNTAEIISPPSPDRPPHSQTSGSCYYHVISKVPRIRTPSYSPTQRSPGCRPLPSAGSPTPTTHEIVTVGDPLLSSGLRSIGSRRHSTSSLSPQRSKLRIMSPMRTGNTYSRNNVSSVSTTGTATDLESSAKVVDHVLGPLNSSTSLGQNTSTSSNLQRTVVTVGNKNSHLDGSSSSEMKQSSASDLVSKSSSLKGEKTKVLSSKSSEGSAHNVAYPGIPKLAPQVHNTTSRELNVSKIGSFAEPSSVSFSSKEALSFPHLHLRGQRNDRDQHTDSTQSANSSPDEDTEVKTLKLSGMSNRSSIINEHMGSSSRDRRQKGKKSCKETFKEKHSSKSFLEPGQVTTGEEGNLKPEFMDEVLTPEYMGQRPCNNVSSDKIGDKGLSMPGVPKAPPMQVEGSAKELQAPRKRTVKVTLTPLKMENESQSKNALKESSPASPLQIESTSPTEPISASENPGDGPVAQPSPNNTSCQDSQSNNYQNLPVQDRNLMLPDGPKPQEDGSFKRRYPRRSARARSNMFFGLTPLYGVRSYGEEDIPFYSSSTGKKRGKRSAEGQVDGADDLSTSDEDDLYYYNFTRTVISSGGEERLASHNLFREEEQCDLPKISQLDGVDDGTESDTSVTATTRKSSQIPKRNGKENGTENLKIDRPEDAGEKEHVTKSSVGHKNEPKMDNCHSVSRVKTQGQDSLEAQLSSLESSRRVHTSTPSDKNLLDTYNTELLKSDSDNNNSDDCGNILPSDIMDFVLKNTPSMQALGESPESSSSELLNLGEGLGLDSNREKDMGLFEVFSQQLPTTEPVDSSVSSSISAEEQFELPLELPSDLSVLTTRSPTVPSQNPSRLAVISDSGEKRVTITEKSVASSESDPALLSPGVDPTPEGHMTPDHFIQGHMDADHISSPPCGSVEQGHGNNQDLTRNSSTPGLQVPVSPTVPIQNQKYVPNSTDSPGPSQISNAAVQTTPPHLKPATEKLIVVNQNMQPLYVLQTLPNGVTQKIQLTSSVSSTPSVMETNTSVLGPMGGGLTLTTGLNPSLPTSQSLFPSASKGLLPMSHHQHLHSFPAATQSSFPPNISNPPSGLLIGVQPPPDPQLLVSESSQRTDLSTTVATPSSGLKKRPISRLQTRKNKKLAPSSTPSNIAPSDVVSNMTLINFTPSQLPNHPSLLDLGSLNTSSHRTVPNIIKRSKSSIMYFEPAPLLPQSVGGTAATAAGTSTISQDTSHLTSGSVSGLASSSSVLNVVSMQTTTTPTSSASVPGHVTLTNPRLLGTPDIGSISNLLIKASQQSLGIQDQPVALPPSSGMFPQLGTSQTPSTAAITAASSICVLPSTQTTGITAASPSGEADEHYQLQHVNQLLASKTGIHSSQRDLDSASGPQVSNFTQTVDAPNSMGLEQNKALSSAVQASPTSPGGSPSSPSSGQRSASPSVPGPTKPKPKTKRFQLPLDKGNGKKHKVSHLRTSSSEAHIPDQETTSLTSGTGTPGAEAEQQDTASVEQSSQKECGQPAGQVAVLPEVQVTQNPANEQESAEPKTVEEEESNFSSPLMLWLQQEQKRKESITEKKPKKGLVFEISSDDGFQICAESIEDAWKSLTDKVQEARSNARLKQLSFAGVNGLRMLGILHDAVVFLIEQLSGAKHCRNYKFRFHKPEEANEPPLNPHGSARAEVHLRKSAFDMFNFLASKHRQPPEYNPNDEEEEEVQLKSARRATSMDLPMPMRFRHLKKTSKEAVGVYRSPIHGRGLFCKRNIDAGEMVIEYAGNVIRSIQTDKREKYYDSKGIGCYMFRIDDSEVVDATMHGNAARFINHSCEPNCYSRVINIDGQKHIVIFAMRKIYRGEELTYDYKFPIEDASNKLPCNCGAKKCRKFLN

T1: endogenous PRPF6 (pre-mRNA processing factor 6) of CWR22Rv1 cells (human (endogenous in CWR22Rv1)) (UniProt O94906)
T1 sequence: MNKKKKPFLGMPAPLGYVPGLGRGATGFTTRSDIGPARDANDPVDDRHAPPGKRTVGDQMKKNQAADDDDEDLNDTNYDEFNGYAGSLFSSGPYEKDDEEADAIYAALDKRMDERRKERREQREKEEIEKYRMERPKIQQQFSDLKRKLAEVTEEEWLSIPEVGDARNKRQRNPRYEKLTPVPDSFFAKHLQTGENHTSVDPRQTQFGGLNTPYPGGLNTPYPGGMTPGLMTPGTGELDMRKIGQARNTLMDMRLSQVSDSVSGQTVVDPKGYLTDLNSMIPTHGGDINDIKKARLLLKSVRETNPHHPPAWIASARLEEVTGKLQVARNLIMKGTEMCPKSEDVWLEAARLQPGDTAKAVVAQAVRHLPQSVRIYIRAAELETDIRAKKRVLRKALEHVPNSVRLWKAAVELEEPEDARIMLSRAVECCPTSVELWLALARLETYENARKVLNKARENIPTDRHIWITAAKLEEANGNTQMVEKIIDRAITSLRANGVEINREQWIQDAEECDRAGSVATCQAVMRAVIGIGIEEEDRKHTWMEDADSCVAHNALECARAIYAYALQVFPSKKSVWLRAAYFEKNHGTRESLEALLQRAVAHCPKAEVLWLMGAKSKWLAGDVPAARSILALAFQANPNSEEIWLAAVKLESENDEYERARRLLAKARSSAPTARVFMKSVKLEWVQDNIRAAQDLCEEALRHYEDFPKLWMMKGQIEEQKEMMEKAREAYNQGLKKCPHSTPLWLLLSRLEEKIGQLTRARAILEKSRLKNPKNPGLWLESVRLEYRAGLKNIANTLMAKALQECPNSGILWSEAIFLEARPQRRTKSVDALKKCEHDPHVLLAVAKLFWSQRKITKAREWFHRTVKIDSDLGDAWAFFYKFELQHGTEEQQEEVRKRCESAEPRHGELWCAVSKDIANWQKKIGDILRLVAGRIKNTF


Assays:
[1] = target: T1, endogenous PRPF6 (pre-mRNA processing factor 6) of CWR22Rv1 cells (human (endogenous in CWR22Rv1)); experiment: co-IP; endogenous proteins; CWR22Rv1 cells treated with 10^-8 M DHT or ethanol for 24 hrs (in Figure 4E infected with shPRPF6 or shCtrl); whole cell lysates immunoprecipitated with normal IgG, anti-AR or anti-PRPF6 antibody, western blot
[2] = target: AR overexpressed from an AR expression plasmid in CWR22Rv1 cells (UniProt P10275); experiment: co-IP; CWR22Rv1 cells infected with shPRPF6 or shCtrl and transfected with AR expression plasmid, 10^-8 M DHT or ethanol for 24 hrs; lysates immunoprecipitated with normal IgG or anti-AR antibody, western blot
[3] = target: AR full length (AR-FL), exogenously expressed in HEK293 cells (UniProt P10275); experiment: co-IP; HEK293 cells co-transfected with AR-FL and PRPF6 plasmids, DHT (10^-8 M) or ethanol for 24 hrs; whole cell lysates immunoprecipitated with anti-AR antibody, western blot

binding [1] | binding [2] | binding [3] | Molecule
no binding |  |  | endogenous mixed-lineage leukemia 1 (MLL1) of CWR22Rv1 cells (from UniProt Q03164 1-3969) (enzyme)
binds | binds |  | endogenous JMJD1A (histone demethylase jumonji domain containing 1A) of CWR22Rv1 cells (enzyme, UniProt Q9Y4C1 1-1321) MVLTLGESWPVLVGRRFLSLSAADGSDGSHDSWDVERVAEWPWLSGTIRAVSHTDVTKKDLKVCVEFDGESWRKRRWIEVYSLLRRAFLVEHNLVLAERKSPEISERIVQWPAITYKPLLDKAGLGSITSVRFLGDQQRVFLSKDLLKPIQDVNSLRLSLTDNQIVSKEFQALIVKHLDESHLLKGDKNLVGSEVKIYSLDPSTQWFSATVINGNPASKTLQVNCEEIPALKIVDPSLIHVEVVHDNLVTCGNSARIGAVKRKSSENNGTLVSKQAKSCSEASPSMCPVQSVPTTVFKEILLGCTAATPPSKDPRQQSTPQAANSPPNLGAKIPQGCHKQSLPEEISSCLNTKSEALRTKPDVCKAGLLSKSSQIGTGDLKILTEPKGSCTQPKTNTDQENRLESVPQALTGLPKECLPTKASSKAELEIANPPELQKHLEHAPSPSDVSNAPEVKAGVNSDSPNNCSGKKVEPSALACRSQNLKESSVKVDNESCCSRSNNKIQNAPSRKSVLTDPAKLKKLQQSGEAFVQDDSCVNIVAQLPKCRECRLDSLRKDKEQQKDSPVFCRFFHFRRLQFNKHGVLRVEGFLTPNKYDNEAIGLWLPLTKNVVGIDLDTAKYILANIGDHFCQMVISEKEAMSTIEPHRQVAWKRAVKGVREMCDVCDTTIFNLHWVCPRCGFGVCVDCYRMKRKNCQQGAAYKTFSWLKCVKSQIHEPENLMPTQIIPGKALYDVGDIVHSVRAKWGIKANCPCSNRQFKLFSKPASKEDLKQTSLAGEKPTLGAVLQQNPSVLEPAAVGGEAASKPAGSMKPACPASTSPLNWLADLTSGNVNKENKEKQPTMPILKNEIKCLPPLPPLSKSSTVLHTFNSTILTPVSNNNSGFLRNLLNSSTGKTENGLKNTPKILDDIFASLVQNKTTSDLSKRPQGLTIKPSILGFDTPHYWLCDNRLLCLQDPNNKSNWNVFRECWKQGQPVMVSGVHHKLNSELWKPESFRKEFGEQEVDLVNCRTNEIITGATVGDFWDGFEDVPNRLKNEKEPMVLKLKDWPPGEDFRDMMPSRFDDLMANIPLPEYTRRDGKLNLASRLPNYFVRPDLGPKMYNAYGLITPEDRKYGTTNLHLDVSDAANVMVYVGIPKGQCEQEEEVLKTIQDGDSDELTIKRFIEGKEKPGALWHIYAAKDTEKIREFLKKVSEEQGQENPADHDPIHDQSWYLDRSLRKRLHQEYGVQGWAIVQFLGDVVFIPAGAPHQVHNLYSCIKVAEDFVSPEHVKHCFWLTQEFRYLSQTHTNHEDKLQVKNVIYHAVKDAVAMLKASESSFGKP
 |  | binds | Myc-tagged PRPF6 (pre-mRNA processing factor 6) (protein, UniProt O94906 1-941) MNKKKKPFLGMPAPLGYVPGLGRGATGFTTRSDIGPARDANDPVDDRHAPPGKRTVGDQMKKNQAADDDDEDLNDTNYDEFNGYAGSLFSSGPYEKDDEEADAIYAALDKRMDERRKERREQREKEEIEKYRMERPKIQQQFSDLKRKLAEVTEEEWLSIPEVGDARNKRQRNPRYEKLTPVPDSFFAKHLQTGENHTSVDPRQTQFGGLNTPYPGGLNTPYPGGMTPGLMTPGTGELDMRKIGQARNTLMDMRLSQVSDSVSGQTVVDPKGYLTDLNSMIPTHGGDINDIKKARLLLKSVRETNPHHPPAWIASARLEEVTGKLQVARNLIMKGTEMCPKSEDVWLEAARLQPGDTAKAVVAQAVRHLPQSVRIYIRAAELETDIRAKKRVLRKALEHVPNSVRLWKAAVELEEPEDARIMLSRAVECCPTSVELWLALARLETYENARKVLNKARENIPTDRHIWITAAKLEEANGNTQMVEKIIDRAITSLRANGVEINREQWIQDAEECDRAGSVATCQAVMRAVIGIGIEEEDRKHTWMEDADSCVAHNALECARAIYAYALQVFPSKKSVWLRAAYFEKNHGTRESLEALLQRAVAHCPKAEVLWLMGAKSKWLAGDVPAARSILALAFQANPNSEEIWLAAVKLESENDEYERARRLLAKARSSAPTARVFMKSVKLEWVQDNIRAAQDLCEEALRHYEDFPKLWMMKGQIEEQKEMMEKAREAYNQGLKKCPHSTPLWLLLSRLEEKIGQLTRARAILEKSRLKNPKNPGLWLESVRLEYRAGLKNIANTLMAKALQECPNSGILWSEAIFLEARPQRRTKSVDALKKCEHDPHVLLAVAKLFWSQRKITKAREWFHRTVKIDSDLGDAWAFFYKFELQHGTEEQQEEVRKRCESAEPRHGELWCAVSKDIANWQKKIGDILRLVAGRIKNTF
